Results are given in words; binding and its absence hold for the method and conditions named. Binding can be weak; no strength is given.
B1: S8-ATX1E1 (antibody, V domains shown)
VH: EVQLVESGGGLVQPGRSLRLSCAASGFMFDDYVMHWVRQAPGKGLEWVSGINWNSDNIGYADSVKGRFTISRDNAKNSLFLQMNSLRVEDTALYYCAKDIDAAAFDYWGQGTLVTVSS
VL: DIVMTQSPLSLPVTPGEPASISCRSSQSLLHSNGYSYLAWYLQKPGQSPQLLIYLVSNRASGVPDRFTGSGSGTDFTLKISRVEAEDVGVYYCMQALQTPWTFGQGTKVEIK
B2: S8-ATX1E4 (antibody, V domains shown)
VH: QVQLVQSGSELKKPGASVKVSCKTSGYTFTSYAMNWVRQAPGQGLEWMGWINTNTGNPTYAQGFRGRFVFSLDTSVSTAYLQISSLKAEDTAVYYCARDKYSSSWYWFDSWGQGTLVTVSS
VL: DIQMTQSPSSLSASVGDRVTITCRPSQNISSYLNWYQQKPGKAPKLLIYAASSLRSGVPSRFSGSGSGTDFTLTVSSLQPEDFANYYCQQSYSTPYTFGRGTKLEIK

Molecular target: Siglec-8^ΔE2 (truncated human Siglec-8 lacking exon 2) (human)
Assay: flow cytometry on K562 cells expressing Siglec-8 ΔE2 (FIG. 9C)

Row | Binder | binding
1 | B1 | binds
2 | B2 | binds

Source: patent publication US20250034245A1
